# Data published in publication PMC4676809.
# Assays:
# Assay in all cases: two-hybrid; Gal4 DB baits in S. cerevisiae Y8930 and Gal4 AD preys in Y8800, pairwise mated in a crosswise matrix; growth on YNB -LTH but not on -LH with cycloheximide scored as positive; autoactivators removed
# [1] = target: PaGG2, Picea abies conifer-specific short Gγ-subunit (Picea abies) (UniProt X2D7V7)
# [2] = target: PaGG1, Picea abies A-type Gγ-subunit (Picea abies) (UniProt X2D846)
# [3] = target: PaGG4, Picea abies C-type Gγ-subunit (Picea abies) (UniProt X2D8C5)
# [4] = target: PaGG3, Picea abies C-type Gγ-subunit (Picea abies) (UniProt X2D807)
# [5] = target: PaHGB1, Picea abies heterotrimeric G-protein Gβ-subunit (Picea abies) (UniProt X2D873)
binding [1],binding [2],binding [3],binding [4],binding [5],Substance
no binding,binds,binds,binds,–,"PaHGB1, Picea abies heterotrimeric G-protein Gβ-subunit (from UniProt X2D873)"
–,binds,no binding,no binding,–,"PaGG2, Picea abies conifer-specific short Gγ-subunit (from UniProt X2D7V7)"
binds,binds,binds,binds,binds,"PaGPA1, Picea abies heterotrimeric G-protein Gα-subunit (from UniProt A0A0N7B0N5)"

# No constants are given. Whether binding was seen depends on the method and setting. Binding can be weak; no strength is given.
